# Measured values taken from PubChem BioAssay AID2685 (National Center for Advancing Translational Sciences (NCATS), 2010).
# The other results are listed elsewhere or left out. Shown are side measurements of this screen, not its main read-out; they come without a call. Most of these compounds were active or inconclusive in the main read-out, so they are no random draw. Potencies come from curve fits of mixed quality, noted in brackets.
# Test: qHTS Assay for Lipid Storage Modulators in Drosophila S3 Cells;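 for cell number change: cells counted by Cell Tracker Red CMTPX staining in the red channel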
# Settings: BODIPY lipid droplet fluorescence, 18-24 h; for cell number change: measured here: cell count max response, cells fed with added oleic acid
# In short: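 Drosophila S3 cells loaded with oleic acid (400 uM, as added) and compounds at several concentrations; lipid droplets imaged by 488-nm laser-scanning cytometry, 500–530 nm intensity and object ratio to cell channel. Percent activity normalized to 20 uM Triacsin C.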
# [1] = measured here: cell number channel AC50, cells fed with added oleic acid
# [2] = measured here: lipid fluorescence (Fed channel) AC50, cells fed with added oleic acid
Structure (SMILES),cell number change [%],AC50 [1],AC50 [2]
Cc1cc(C(=O)N2CCN(c3ncccc3C#N)CC2)no1,-54.3,"411 nM [falling, full curve]","580 nM [falling, full curve]"
CC(=O)Nc1ccc(NC(=O)[C@H](C)NC(=O)c2ccco2)cc1,43.1,"20600 nM [rising, partial curve, poor fit]",
Cc1c(NCc2cc(Cl)cc(Cl)c2O)c(=O)n(-c2ccccc2)n1C,-2.38,"146 nM [falling, full curve, poor fit]",
CCOC(=O)C(C)Sc1nnc(Cc2cc(=O)[nH]c(=O)[nH]2)n1-c1cccc(OC)c1 (centres undefined),-0.0541,,
O=c1ccc(S(=O)(=O)N2CCCC2)cn1Cc1nc(-c2ccc(F)cc2)no1,,,"164 nM [rising, full curve]"
O=C(CSc1nnc(Cc2cc(=O)[nH]c(=O)[nH]2)n1-c1ccc(F)cc1)NC1CCCC1,-15.1,,"2060 nM [falling, single point]"
COc1ccc(CNC(=O)COc2cc(O)c3c(c2)OC(C)(C)CC3=O)cc1,21.6,,"29100 nM [rising, single point]"
O=C(C1CCCO1)N1CCc2ccccc21 (centres undefined),9.59,,"18400 nM [falling, partial curve]"
COc1ccc(Cc2n[nH]c(=S)n2NC(=O)Nc2ccc(C)cc2)cc1,-22.2,,"4.61 nM [falling, full curve, poor fit]"
COc1ccc(CN2CCCC(C(=O)N3CCc4ccccc4C3)C2)cc1OC (centres undefined),7.91,"6510 nM [rising, single point]",
Cc1ccc(C)c(S(=O)(=O)N2CCCC2CNC(=O)C(=O)NCCN2CCOCC2)c1 (centres undefined),-39.4,,
Cc1ccc(CCNC(=O)CNC(=O)c2cccs2)cc1,41.7,"580 nM [rising, partial curve]","9200 nM [rising, partial curve]"
NC(=O)c1cc([N+](=O)[O-])ccc1NCC1CCCCC1,-49.3,"29100 nM [falling, single point]","5170 nM [falling, single point]"
CCn1c(SCC(=O)Nc2ccc(NC(C)=O)cc2)nc2c([nH]c3ccccc32)c1=O,18.1,"2060 nM [falling, single point]","4.61 nM [rising, full curve, poor fit]"
COc1ccccc1N1CCN(C(=O)c2ccc(S(=O)(=O)N3CCCC3)cc2)CC1,15.2,,"10300 nM [rising, partial curve]"
O=C(NC(=S)NNS(=O)(=O)c1ccccc1)c1ccc([N+](=O)[O-])cc1,-4.31,,"291 nM [falling, full curve, poor fit]"
Cc1ccc(CSc2sc(C(=O)c3ccccc3)c(N)c2C#N)cc1,68.1,"2060 nM [rising, full curve]","14600 nM [rising, partial curve]"
Cc1ccc(NC(=O)Cc2nnc(SCC(=O)NC3CCCC3)n2C)c(C)c1,-7.89,,
O=C(CCC(=O)Nc1ccc(Cl)cc1Cl)NNC(=O)Nc1ccccc1,15,,

# Compounds listed so far that contain a nitro group on carbon:
Structure (SMILES),cell number change [%],AC50 [1],AC50 [2]
NC(=O)c1cc([N+](=O)[O-])ccc1NCC1CCCCC1,-49.3,"29100 nM [falling, single point]","5170 nM [falling, single point]"
O=C(NC(=S)NNS(=O)(=O)c1ccccc1)c1ccc([N+](=O)[O-])cc1,-4.31,,"291 nM [falling, full curve, poor fit]"

# (cont.)

Structure (SMILES),cell number change [%],AC50 [1],AC50 [2]
COC(=O)CCC(=O)Nc1cccc(C(=O)Nc2cccc(Cl)c2)c1,-35.2,"5.8 nM [falling, full curve, poor fit]","16400 nM [falling, partial curve, poor fit]"
COC(=O)c1ccccc1-c1ccc(/C=C2\C(=O)N(c3ccccc3)N=C2c2ccccc2)o1,-26.9,,"32600 nM [falling, partial curve, poor fit]"
CCn1c(COC(=O)CNC(=O)c2cc(OC)c(OC)c(OC)c2)nc2cc(S(=O)(=O)N(C)C)ccc21,14.7,,"4610 nM [falling, single point]"
COc1cccc(CNc2ccc3c(c2)ncn3C(C)C)c1OC,4.17,,
N#Cc1c(-c2ccccc2)nc2n(-c3ccccc3)nc(C(=O)Nc3ccccc3)n2c1=O,83.8,"1640 nM [rising, full curve]","1460 nM [rising, partial curve]"
COc1cc2c(cc1NC(=O)Cc1ccc(C)cc1)oc1ccccc12,11.3,,"326 nM [falling, full curve]"
CCC1CCCCN1C(=S)NC(=O)c1ccc([N+](=O)[O-])cc1 (centres undefined),167,,
O=C1C=C(/C=C/C2C=CC=CC2)C[C@@H](c2ccc(Cl)cc2)C1 (some centres undefined),-29.8,,
CCOc1ccc(S(=O)(=O)N(C)c2ccc(OCC(=O)NC3=NCCS3)cc2)cc1,9.5,,
CC(=O)NC(c1ccc(Cl)cc1Cl)c1ccc2cccnc2c1O (centres undefined),-44.2,"18400 nM [falling, partial curve]",
c1ccc2c3c(c(CN4CCCCC4)cc2c1)COC3,-26.5,,"29100 nM [falling, single point]"
Cc1ccc(C)c(C(=O)CN2C(=O)C(=O)N(C3CCCC3)C2=O)c1,-10.2,,"29100 nM [falling, single point]"
CCNc1nc(Nc2ccc(C)c(Cl)c2)c2cnn(C)c2n1,-19.9,,"8200 nM [falling, partial curve]"
O=C(CNC(=O)c1sc2ccccc2c1Cl)NC1CC1,-28.4,"461 nM [falling, full curve, poor fit]","1460 nM [falling, full curve]"
S=C(NCCc1ccccc1)Nc1ccc(Br)cc1,-37.1,"1640 nM [falling, partial curve]",
O=c1cc(N2CCN(c3ccccc3)CC2)[nH]c(=O)n1-c1ccccc1,24.4,,
CC(=O)Nc1ccc(SC[C@H](Cc2ccccc2)N2CC[C@@H](C(C)(C)C)CCC2=O)cc1,-33.7,"18400 nM [falling, single point]",
C[C@@H]1NC(=O)[C@@]2(C)[C@@H](c3ccccc3)[C@H]3COc4ccc(Cl)cc4[C@@H]3N2C1=O,-9.15,,"116 nM [rising, full curve, poor fit]"
O=C(Nc1ccc(Cl)cc1)N(Cc1cccnc1)Cc1ccco1,,"2310 nM [rising, partial curve]","1840 nM [rising, partial curve]"
